Results from article PMC7819943, “Rice protein-binding microarrays: a tool to detect cis-acting elements near promoter regions in rice”.
The list shows a part of the results.

These sequences were tested against T1, OsSMF1 (Oryza sativa, UniProt Q6ZLB0 1-436) (assay: protein-binding microarray (RPBM); PBS, 2% BSA, 51.3 ng/ul salmon testes DNA, 50 uM zinc acetate, 200 nM TF, 25 C, 1 h; high values mean tight binding). Conditions: protein: recombinant; tags: N-terminal polyhistidine and DsRed monomer fusion (pET32a); chain copies: 2; label: CyDye5-dUTP incorporated in the synthesized complementary strand; 3' TTTTT single-stranded linker to array surface; dsDNA, one strand shown.
T1 sequence: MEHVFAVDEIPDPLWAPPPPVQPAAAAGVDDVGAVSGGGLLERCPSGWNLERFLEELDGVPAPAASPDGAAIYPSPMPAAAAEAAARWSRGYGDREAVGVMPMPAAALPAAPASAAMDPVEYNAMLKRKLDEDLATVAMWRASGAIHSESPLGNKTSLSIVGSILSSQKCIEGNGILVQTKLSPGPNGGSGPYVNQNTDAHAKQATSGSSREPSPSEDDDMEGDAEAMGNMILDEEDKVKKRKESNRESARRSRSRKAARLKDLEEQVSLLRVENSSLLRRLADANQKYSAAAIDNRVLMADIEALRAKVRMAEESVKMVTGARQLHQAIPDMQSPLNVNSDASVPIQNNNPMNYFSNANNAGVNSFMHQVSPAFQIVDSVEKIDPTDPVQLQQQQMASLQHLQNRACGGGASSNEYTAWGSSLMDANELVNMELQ
Outline: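 Using Ni–NTA, transcription factors fused N-terminally to polyhistidine and DsRed were purified after expression in E. coli BL21-CodonPlus. These were incubated at 200 nM with a blocked, double-stranded custom Agilent array for 1 h at 25 °C in a buffer containing 50 µM zinc acetate, and the array was washed. The binding signal is per-feature fluorescence intensity (arbitrary units) on an Axon 4000B scanner.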

Sequence	binding signal
CCTTCTCTCTCGCACCCGCAAAAGCTCAAACCCCTACACTCGGAGTCACCTAGTGCAG	3220 fluorescence intensity (a.u.)
AGAAACCGTGGGTACTAGTTATTAAAATTCTTCCGTTGCACGGAGTCACCTAGTGCAG	15000 fluorescence intensity (a.u.)
CCGCCGCCGCGTGCGCTGGCCACGCCGCCTCCGGCGACCTCGGAGTCACCTAGTGCAG	3970 fluorescence intensity (a.u.)
AAACTATATTCATCAGTGGTACCCACAAATATTAGACACTCGGAGTCACCTAGTGCAG	31600 fluorescence intensity (a.u.)
TATCCCACACATCCTAGTAAGTAAATCAATTTAGTTATATCGGAGTCACCTAGTGCAG	3440 fluorescence intensity (a.u.)
GGAGTAGTTTGGTTGGTTCGTTAAGGGACAGAGGGAGCTGCGGAGTCACCTAGTGCAG	3300 fluorescence intensity (a.u.)
GCTTAGATGTTTGATGTTTCGTTACATAAGATATAGTGGGCGGAGTCACCTAGTGCAG	3630 fluorescence intensity (a.u.)
ATGCTTGTTTTGTTCGGTGTTCTTATAGAATGTGTAAAACCGGAGTCACCTAGTGCAG	16600 fluorescence intensity (a.u.)
ACCCGTGCTGACTCAACTTGTTGACCAGAAACCACCCCACCGGAGTCACCTAGTGCAG	8820 fluorescence intensity (a.u.)
ACCCTCCACGTGGCGCCATGCGATTCCAGCGTTAGACCCCCGGAGTCACCTAGTGCAG	17500 fluorescence intensity (a.u.)
AAATTCGTTCTACAACTAAACAGGTTGCTTCAGAGTGCAACGGAGTCACCTAGTGCAG	30800 fluorescence intensity (a.u.)
ATTTTAGTGCAATCAGTGACGTGTTGCTGGTGAGGATGTGCGGAGTCACCTAGTGCAG	3560 fluorescence intensity (a.u.)
CACGCCCGCCGCGCGGCCCACCTCCGCCTTTATGACCGATCGGAGTCACCTAGTGCAG	3250 fluorescence intensity (a.u.)
GCTTTGACTACGCCCCGGAACGGAACGCATGCGTGCACCGCGGAGTCACCTAGTGCAG	3290 fluorescence intensity (a.u.)
TTGCATGGTCCAGTGCACCATGTCCACATCAACCAAGCAGCGGAGTCACCTAGTGCAG	3280 fluorescence intensity (a.u.)
CACGGAATTCAAACACACTGAGACCAATCAAACAGCCATGCGGAGTCACCTAGTGCAG	15800 fluorescence intensity (a.u.)
GAGGGTTTCCCACCCGCGAGAAGTCGGCGCTCCCCTCTTCCGGAGTCACCTAGTGCAG	3150 fluorescence intensity (a.u.)
TCCTATCGATCCCGATGACGTAGGTCCCATCCATTGATTTCGGAGTCACCTAGTGCAG	8590 fluorescence intensity (a.u.)
CGAGCGTGCCGTCATCGTGCATCCATTGGTGCTTCTCCCGCGGAGTCACCTAGTGCAG	3910 fluorescence intensity (a.u.)
AATCATGTGCATGATTCATCAACAGCTAATGACAAGGATTCGGAGTCACCTAGTGCAG	4160 fluorescence intensity (a.u.)
CGCCGCTGCGGCCGAACCAGTACGTGGAGGTGTACCTGTTCGGAGTCACCTAGTGCAG	3720 fluorescence intensity (a.u.)

Nothing new here: an excerpt of the list.
Sequence	binding signal
AAACTATATTCATCAGTGGTACCCACAAATATTAGACACTCGGAGTCACCTAGTGCAG	31600 fluorescence intensity (a.u.)
TATCCCACACATCCTAGTAAGTAAATCAATTTAGTTATATCGGAGTCACCTAGTGCAG	3440 fluorescence intensity (a.u.)
GGAGTAGTTTGGTTGGTTCGTTAAGGGACAGAGGGAGCTGCGGAGTCACCTAGTGCAG	3300 fluorescence intensity (a.u.)
GCTTAGATGTTTGATGTTTCGTTACATAAGATATAGTGGGCGGAGTCACCTAGTGCAG	3630 fluorescence intensity (a.u.)
ATGCTTGTTTTGTTCGGTGTTCTTATAGAATGTGTAAAACCGGAGTCACCTAGTGCAG	16600 fluorescence intensity (a.u.)
ACCCGTGCTGACTCAACTTGTTGACCAGAAACCACCCCACCGGAGTCACCTAGTGCAG	8820 fluorescence intensity (a.u.)
ACCCTCCACGTGGCGCCATGCGATTCCAGCGTTAGACCCCCGGAGTCACCTAGTGCAG	17500 fluorescence intensity (a.u.)
AAATTCGTTCTACAACTAAACAGGTTGCTTCAGAGTGCAACGGAGTCACCTAGTGCAG	30800 fluorescence intensity (a.u.)
ATTTTAGTGCAATCAGTGACGTGTTGCTGGTGAGGATGTGCGGAGTCACCTAGTGCAG	3560 fluorescence intensity (a.u.)
CACGCCCGCCGCGCGGCCCACCTCCGCCTTTATGACCGATCGGAGTCACCTAGTGCAG	3250 fluorescence intensity (a.u.)
GCTTTGACTACGCCCCGGAACGGAACGCATGCGTGCACCGCGGAGTCACCTAGTGCAG	3290 fluorescence intensity (a.u.)

Additional records follow:

Sequence	binding signal
AATCAAACTTTCAATTTTAGCGTGAACTAAACACACCCTTCGGAGTCACCTAGTGCAG	3680 fluorescence intensity (a.u.)
ATAATGAACAATTTCTTTCCAAGCTACATGTAGACCAGAGCGGAGTCACCTAGTGCAG	40100 fluorescence intensity (a.u.)
AGTTTTACTGTGCATTGCTTTGCTGCTCTGTGTTTTGTGGCGGAGTCACCTAGTGCAG	3870 fluorescence intensity (a.u.)
AGTACACTTTTGCAGTCCAAGTGTCCAACTAATCCAGCTGCGGAGTCACCTAGTGCAG	3270 fluorescence intensity (a.u.)
AATACTGTCTAACTCAGGAGTGAATCATGACTCCATGCAACGGAGTCACCTAGTGCAG	3520 fluorescence intensity (a.u.)
GACCCGTCGTTGGGTTACGTGGACTTTCTCCTATTTTGAACGGAGTCACCTAGTGCAG	6890 fluorescence intensity (a.u.)
GAGACGAGGAGGAAGAAGAAGCGAGCGAAGCTTGTGTTGGCGGAGTCACCTAGTGCAG	26500 fluorescence intensity (a.u.)
AGAACAAAGCAAGCATGGAGAGATCAGCACTAACAATGGCCGGAGTCACCTAGTGCAG	3240 fluorescence intensity (a.u.)
TGGCGATGGTTCGGCCACCGTCACCCTTCCCCTGCCCTTACGGAGTCACCTAGTGCAG	3230 fluorescence intensity (a.u.)
GAGGAGGTCGAAGATGGCAGTGACGATGACGGTGGGGTTGCGGAGTCACCTAGTGCAG	4140 fluorescence intensity (a.u.)
TTTAGAGGACCGACCACCGCCACGTGGCAGCACGGCCGATCGGAGTCACCTAGTGCAG	12000 fluorescence intensity (a.u.)
TGGGATTGAGACCTTGCGTGAGGCTCATTGTTGTTGGGCCCGGAGTCACCTAGTGCAG	6890 fluorescence intensity (a.u.)
TTTGATTCGAAGCGTCAGCTGCTGCTGATTTCTGAGTTTTCGGAGTCACCTAGTGCAG	4190 fluorescence intensity (a.u.)
AAGCACTGTCCGTGCGACGTCACCTCGCCCACGCAAGACGCGGAGTCACCTAGTGCAG	7620 fluorescence intensity (a.u.)
CCGGGCCATCGCCAGCTCGGCGCCACGTGGCACTCCTCCCCGGAGTCACCTAGTGCAG	24600 fluorescence intensity (a.u.)
ACAGACAGACAGCTCCAACCAACACTTGCACGCTCAATCGCGGAGTCACCTAGTGCAG	3400 fluorescence intensity (a.u.)
CAAACAAAACAATAAGACGACCGAAAAGCCTTGCAAGCAACGGAGTCACCTAGTGCAG	26000 fluorescence intensity (a.u.)
GCCCGTGGCCCACGGCCGCTTTGCTTCGCCACGATACCCGCGGAGTCACCTAGTGCAG	4700 fluorescence intensity (a.u.)
GTGTTGTTGTTGTTGCTGCTGCGTTGGTGTCTCGTCGACGCGGAGTCACCTAGTGCAG	3370 fluorescence intensity (a.u.)
CACTTAACCGTTGGGCTAAATGCCAGCCGATGGCTTCTCTCGGAGTCACCTAGTGCAG	3650 fluorescence intensity (a.u.)
TGGGCCATCAATCCTCTCTTTCCCTCTCTTCCCTTCCTTGCGGAGTCACCTAGTGCAG	30400 fluorescence intensity (a.u.)
